{"source": "paper PMC4831274", "binders": {"B1": {"name": "FLAG-tagged wild-type full-length MEKK2 (MEK kinase 2) (enzyme, UniProt Q9Y2U5 1-619)", "chain": "MDDQQALNSIMQDLAVLHKASRPALSLQETRKAKSSSPKKQNDVRVKFEHRGEKRILQFPRPVKLEDLRSKAKIAFGQSMDLHYTNNELVIPLTTQDDLDKAVELLDRSIHMKSLKILLVINGSTQATNLEPLPSLEDLDNTVFGAERKKRLSIIGPTSRDRSSPPPGYIPDELHQVARNGSFTSINSEGEFIPESMDQMLDPLSLSSPENSGSGSCPSLDSPLDGESYPKSRMPRAQSYPDNHQEFSDYDNPIFEKFGKGGTYPRRYHVSYHHQEYNDGRKTFPRARRTQGTSLRSPVSFSPTDHSLSTSSGSSIFTPEYDDSRIRRRGSDIDNPTLTVMDISPPSRSPRAPTNWRLGKLLGQGAFGRVYLCYDVDTGRELAVKQVQFDPDSPETSKEVNALECEIQLLKNLLHERIVQYYGCLRDPQEKTLSIFMEYMPGGSIKDQLKAYGALTENVTRKYTRQILEGVHYLHSNMIVHRDIKGANILRDSTGNVKLGDFGASKRLQTICLSGTGMKSVTGTPYWMSPEVISGEGYGRKADIWSVACTVVEMLTEKPPWAEFEAMAAIFKIATQPTNPKLPPHVSDYTRDFLKRIFVEAKLRPSADELLRHMFVHYH"}}, "target": "GST-LD1 fusion protein (paxillin leucine-rich motif 1)", "test": "pull-down; purified recombinant GST-LD1 used to pull down FLAG-MEKK2 from transfected 293T cell lysates; compared with GST alone; only the target purified", "note": "No constants are given. Whether binding was seen depends on the method and setting. In cells and extracts the contact can be indirect. A result given as binding can be weak or reduced; the word gives no strength. Tags and fused reporters may be left off the sequences shown.", "data": [{"binder": "B1", "values": [{"measurement": "binding", "value": "binds"}]}]}
